Results are given in words; binding and its absence hold for the method and conditions named. In cells and extracts the contact can be indirect. These calls come from enrichment with a bait or labelling near it, and not all partners need be listed.
B1: SRSF3 (protein, UniProt P84104 1-164)
chain: MHRDSCPLDCKVYVGNLGNNGNKTELERAFGYYGPLRSVWVARNPPGFAFVEFEDPRDAADAVRELDGRTLCGCRVRVELSNGEKRSRNRGPPPSWGRRPRDDYRRRSPPPRRRSPRRRSFSRSRSRSLSRDRRRERSLSRERNHKPSRSFSRSRSRSRSNERK
B2: ILF3 (interleukin enhancer binding factor 3) (protein, UniProt Q9Z1X4 1-898)
chain: MRPMRIFVNDDRHVMAKHSSVYPTQEELEAVQNMVSHTERALKAVSDWIDEQEKGNSELSEAENMDTPPDDESKEGAGEQKAEHMTRTLRGVMRVGLVAKGLLLKGDLDLELVLLCKEKPTTALLDKVADNLAIQLTTVTEDKYEILQSVDDAAIVIKNTKEPPLSLTIHLTSPVVREEMEKVLAGETLSVNDPPDVLDRQKCLAALASLRHAKWFQARANGLKSCVIVIRVLRDLCTRVPTWGPLRGWPLELLCEKSIGTANRPMGAGEALRRVLECLASGIVMPDGSGIYDPCEKEATDAIGHLDRQQREDITQSAQHALRLAAFGQLHKVLGMDPLPSKMPKKPKNENPVDYTVQIPPSTTYAITPMKRPMEEDGEEKSPSKKKKKIQKKEEKADPPQAMNALMRLNQLKPGLQYKLISQTGPVHAPIFTMSVEVDGSNFEASGPSKKTAKLHVAVKVLQDMGLPTGAEGRDSSKGEDSAEESDGKPAIVAPPPVVEAVSNPSSVFPSDATTEQGPILTKHGKNPVMELNEKRRGLKYELISETGGSHDKRFVMEVEVDGQKFQGAGSNKKVAKAYAALAALEKLFPDTPLALEANKKKRTPVPVRGGPKFAAKPHNPGFGMGGPMHNEVPPPPNIRGRGRGGNIRGRGRGRGFGGANHGGGYMNAGAGYGSYGYSSNSATAGYSQFYSNGGHSGNAGGGGSGGGGGSSSYSSYYQGDSYNSPVPPKHAGKKPLHGGQQKASYSSGYQSHQGQQQPYNQSQYSSYGTPQGKQKGYGHGQGSYSSYSNSYNSPGGGGGSDYSYDSKFNYSGSGGRSGGNSYGSSGSSSYNTGSHGGYGTGSGGSSSYQGKQGGYSSQSNYSSPGSSQSYSGPASSYQSSQGGYSRNTEHSMNYQYR

Amino acid sequences for entries named in this document (tags omitted).
UniProt Q61656: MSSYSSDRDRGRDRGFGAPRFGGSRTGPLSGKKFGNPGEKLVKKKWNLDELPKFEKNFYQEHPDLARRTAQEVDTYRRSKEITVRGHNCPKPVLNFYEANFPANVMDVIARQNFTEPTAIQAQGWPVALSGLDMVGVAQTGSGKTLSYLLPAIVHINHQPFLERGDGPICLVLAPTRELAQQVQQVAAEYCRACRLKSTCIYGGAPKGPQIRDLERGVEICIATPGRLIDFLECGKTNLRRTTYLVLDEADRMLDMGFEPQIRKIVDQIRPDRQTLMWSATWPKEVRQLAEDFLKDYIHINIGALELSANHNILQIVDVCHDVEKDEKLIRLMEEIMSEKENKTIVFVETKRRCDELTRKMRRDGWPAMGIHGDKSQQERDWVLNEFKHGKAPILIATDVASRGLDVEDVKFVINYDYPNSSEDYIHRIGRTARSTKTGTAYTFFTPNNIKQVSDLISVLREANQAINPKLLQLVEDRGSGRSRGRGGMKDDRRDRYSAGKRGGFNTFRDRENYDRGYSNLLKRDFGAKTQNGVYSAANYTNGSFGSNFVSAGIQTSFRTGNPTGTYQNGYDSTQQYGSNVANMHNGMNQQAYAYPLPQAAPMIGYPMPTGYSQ
UniProt P70372: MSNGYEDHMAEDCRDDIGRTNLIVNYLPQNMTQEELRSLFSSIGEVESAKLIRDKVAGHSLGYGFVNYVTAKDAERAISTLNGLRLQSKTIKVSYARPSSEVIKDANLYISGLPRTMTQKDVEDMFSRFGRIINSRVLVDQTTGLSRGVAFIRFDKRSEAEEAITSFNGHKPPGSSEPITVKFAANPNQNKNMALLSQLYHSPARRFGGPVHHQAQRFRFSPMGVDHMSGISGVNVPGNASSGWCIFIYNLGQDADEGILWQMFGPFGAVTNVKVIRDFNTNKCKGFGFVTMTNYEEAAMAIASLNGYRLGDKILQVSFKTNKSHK
UniProt Q9CPN8: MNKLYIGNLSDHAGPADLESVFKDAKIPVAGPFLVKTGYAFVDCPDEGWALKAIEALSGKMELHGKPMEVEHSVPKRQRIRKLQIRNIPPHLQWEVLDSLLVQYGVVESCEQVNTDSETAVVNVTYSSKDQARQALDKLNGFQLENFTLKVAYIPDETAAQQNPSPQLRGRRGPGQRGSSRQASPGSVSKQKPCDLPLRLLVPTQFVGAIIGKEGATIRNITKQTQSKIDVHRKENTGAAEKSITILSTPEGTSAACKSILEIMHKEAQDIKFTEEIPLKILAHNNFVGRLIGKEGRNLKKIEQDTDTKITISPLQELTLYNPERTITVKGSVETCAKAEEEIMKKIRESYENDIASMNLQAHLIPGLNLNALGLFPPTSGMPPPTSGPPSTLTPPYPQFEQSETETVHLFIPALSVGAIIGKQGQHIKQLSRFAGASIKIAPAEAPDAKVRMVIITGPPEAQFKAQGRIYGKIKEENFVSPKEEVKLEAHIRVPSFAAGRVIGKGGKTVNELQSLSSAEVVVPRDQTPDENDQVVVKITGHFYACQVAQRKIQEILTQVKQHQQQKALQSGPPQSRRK
UniProt Q9CXY6: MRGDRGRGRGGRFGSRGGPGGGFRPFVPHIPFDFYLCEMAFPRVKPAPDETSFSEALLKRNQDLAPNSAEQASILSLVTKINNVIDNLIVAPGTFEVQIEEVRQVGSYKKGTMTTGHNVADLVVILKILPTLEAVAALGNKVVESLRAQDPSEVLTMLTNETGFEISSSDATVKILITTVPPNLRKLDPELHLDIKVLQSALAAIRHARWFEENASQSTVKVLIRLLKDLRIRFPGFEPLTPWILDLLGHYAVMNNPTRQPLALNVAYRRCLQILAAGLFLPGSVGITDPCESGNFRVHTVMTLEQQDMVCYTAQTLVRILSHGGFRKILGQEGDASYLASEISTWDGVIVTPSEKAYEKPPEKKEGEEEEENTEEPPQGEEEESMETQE
UniProt P29341: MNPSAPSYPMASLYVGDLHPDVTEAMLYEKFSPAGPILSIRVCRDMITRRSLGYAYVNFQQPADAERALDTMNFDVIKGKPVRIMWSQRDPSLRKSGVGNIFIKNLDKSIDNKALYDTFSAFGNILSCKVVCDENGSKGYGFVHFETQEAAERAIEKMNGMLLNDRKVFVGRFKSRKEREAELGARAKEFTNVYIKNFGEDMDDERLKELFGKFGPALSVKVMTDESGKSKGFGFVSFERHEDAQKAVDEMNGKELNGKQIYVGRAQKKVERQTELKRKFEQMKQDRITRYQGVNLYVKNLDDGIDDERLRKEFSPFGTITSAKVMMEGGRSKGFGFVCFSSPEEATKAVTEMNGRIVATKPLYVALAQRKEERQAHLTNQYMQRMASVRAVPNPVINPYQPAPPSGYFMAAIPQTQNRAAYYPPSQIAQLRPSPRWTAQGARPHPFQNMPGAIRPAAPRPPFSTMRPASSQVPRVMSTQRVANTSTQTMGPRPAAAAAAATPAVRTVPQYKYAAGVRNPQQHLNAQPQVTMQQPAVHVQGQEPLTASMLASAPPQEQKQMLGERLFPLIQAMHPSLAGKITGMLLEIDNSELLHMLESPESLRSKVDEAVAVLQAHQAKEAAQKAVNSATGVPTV
UniProt Q8BX22: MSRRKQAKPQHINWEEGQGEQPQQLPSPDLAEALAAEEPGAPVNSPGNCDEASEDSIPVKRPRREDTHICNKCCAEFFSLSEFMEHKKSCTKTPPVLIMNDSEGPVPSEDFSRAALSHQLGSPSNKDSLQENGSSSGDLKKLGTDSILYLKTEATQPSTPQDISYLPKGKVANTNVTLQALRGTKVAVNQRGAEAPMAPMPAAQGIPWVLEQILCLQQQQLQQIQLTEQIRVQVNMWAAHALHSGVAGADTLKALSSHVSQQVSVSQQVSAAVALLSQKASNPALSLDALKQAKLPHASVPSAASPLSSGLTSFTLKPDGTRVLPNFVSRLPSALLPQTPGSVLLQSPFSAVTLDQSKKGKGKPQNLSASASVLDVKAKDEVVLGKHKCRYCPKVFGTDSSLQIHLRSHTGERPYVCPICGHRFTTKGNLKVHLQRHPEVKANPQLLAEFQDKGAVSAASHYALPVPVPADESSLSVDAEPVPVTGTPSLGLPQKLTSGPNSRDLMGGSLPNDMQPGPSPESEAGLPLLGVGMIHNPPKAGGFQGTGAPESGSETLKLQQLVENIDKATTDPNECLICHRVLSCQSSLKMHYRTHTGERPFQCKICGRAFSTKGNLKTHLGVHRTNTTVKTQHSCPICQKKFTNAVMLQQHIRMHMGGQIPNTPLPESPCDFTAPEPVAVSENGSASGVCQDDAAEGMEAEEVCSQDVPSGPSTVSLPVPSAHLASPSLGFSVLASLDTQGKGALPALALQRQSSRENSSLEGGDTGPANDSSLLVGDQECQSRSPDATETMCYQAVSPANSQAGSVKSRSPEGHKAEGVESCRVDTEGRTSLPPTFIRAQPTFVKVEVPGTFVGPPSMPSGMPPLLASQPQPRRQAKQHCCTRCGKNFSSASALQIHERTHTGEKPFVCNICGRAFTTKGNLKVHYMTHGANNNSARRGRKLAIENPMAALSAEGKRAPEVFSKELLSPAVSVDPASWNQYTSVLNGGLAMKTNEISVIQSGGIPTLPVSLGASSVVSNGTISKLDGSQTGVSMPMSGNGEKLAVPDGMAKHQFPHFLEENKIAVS

These molecules were tested against DEAD box helicase 5 (DDX5) (mouse (endogenous in cultured murine undifferentiated spermatogonia)) (UniProt Q61656) (assay: affinity purification with mass spectrometry; DDX5 immunoprecipitation (goat anti-DDX5, Abcam ab10261, coupled to Dynabeads) from lysates of cultured wildtype murine undifferentiated spermatogonia; lysis buffer 50 mM Tris-HCl pH 8.0, 150 mM NaCl, 5 mM EDTA, 0.5% Nonidet P-40, 1 mM DTT; n = 3 independent experiments).
With ELAVL1 (from UniProt P70372 1-326) the binding was “binds”. In the case of IGF2BP3 (from UniProt Q9CPN8 1-579), the binding is reported as “binds”. ILF2 (from UniProt Q9CXY6 1-390) was tested, and the binding was “binds”. With PABP1 (from UniProt P29341 1-636) the binding was “binds”. In the case of B1, the binding is reported as “binds”. In the case of B2, the binding is reported as “binds”.

Each molecule was assayed against T1, PLZF (mouse (endogenous in cultured murine undifferentiated spermatogonia)) (UniProt Q3UQ17) (assay: affinity purification with mass spectrometry; PLZF immunoprecipitation (goat anti-PLZF, R&D AF2944, coupled to Dynabeads) from lysates of cultured wildtype murine undifferentiated spermatogonia; lysis buffer 50 mM Tris-HCl pH 8.0, 150 mM NaCl, 5 mM EDTA, 0.5% Nonidet P-40, 1 mM DTT; three independent samples).
T1 sequence: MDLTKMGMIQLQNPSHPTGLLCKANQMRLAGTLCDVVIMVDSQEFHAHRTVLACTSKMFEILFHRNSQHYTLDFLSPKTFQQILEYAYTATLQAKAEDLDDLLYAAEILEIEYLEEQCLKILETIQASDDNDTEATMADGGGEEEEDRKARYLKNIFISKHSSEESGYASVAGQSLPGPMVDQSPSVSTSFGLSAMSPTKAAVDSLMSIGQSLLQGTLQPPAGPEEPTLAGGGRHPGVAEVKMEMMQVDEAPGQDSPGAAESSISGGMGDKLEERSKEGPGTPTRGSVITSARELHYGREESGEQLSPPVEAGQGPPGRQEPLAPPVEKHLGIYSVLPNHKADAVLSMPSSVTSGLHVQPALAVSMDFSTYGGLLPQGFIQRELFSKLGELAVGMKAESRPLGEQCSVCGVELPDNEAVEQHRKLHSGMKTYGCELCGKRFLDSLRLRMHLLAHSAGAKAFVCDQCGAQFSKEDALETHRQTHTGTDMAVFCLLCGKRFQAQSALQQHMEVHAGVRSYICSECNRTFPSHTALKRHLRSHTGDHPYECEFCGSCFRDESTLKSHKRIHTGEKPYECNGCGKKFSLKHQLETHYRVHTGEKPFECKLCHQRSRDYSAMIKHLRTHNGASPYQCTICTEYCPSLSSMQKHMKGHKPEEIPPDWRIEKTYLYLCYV
With SALL4 (from UniProt Q8BX22 1-1067) the binding was “binds”.

From article PMC6533336
